Assay results taken from the supplement of paper PMC10849652.
This is one part of the list.

By UniProt entry, the sequences of proteins in these tests, tags left out. Where a name states a change or a piece, a line headed by the entry shows the natural chain unless it says otherwise.
UniProt Q3KQV9: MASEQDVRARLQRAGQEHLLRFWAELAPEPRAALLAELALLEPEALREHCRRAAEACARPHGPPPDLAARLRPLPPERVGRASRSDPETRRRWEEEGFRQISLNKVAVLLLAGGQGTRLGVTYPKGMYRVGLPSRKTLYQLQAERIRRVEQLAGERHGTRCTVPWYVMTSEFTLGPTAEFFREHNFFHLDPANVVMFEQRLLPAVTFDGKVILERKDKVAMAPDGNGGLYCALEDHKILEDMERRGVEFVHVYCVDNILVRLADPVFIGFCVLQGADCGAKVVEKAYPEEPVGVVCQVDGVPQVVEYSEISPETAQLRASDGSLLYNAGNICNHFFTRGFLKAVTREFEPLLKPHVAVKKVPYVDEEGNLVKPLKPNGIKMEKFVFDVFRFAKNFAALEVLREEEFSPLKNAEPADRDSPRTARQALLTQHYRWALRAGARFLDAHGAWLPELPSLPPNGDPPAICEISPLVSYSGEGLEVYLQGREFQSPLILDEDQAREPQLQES
UniProt P17480: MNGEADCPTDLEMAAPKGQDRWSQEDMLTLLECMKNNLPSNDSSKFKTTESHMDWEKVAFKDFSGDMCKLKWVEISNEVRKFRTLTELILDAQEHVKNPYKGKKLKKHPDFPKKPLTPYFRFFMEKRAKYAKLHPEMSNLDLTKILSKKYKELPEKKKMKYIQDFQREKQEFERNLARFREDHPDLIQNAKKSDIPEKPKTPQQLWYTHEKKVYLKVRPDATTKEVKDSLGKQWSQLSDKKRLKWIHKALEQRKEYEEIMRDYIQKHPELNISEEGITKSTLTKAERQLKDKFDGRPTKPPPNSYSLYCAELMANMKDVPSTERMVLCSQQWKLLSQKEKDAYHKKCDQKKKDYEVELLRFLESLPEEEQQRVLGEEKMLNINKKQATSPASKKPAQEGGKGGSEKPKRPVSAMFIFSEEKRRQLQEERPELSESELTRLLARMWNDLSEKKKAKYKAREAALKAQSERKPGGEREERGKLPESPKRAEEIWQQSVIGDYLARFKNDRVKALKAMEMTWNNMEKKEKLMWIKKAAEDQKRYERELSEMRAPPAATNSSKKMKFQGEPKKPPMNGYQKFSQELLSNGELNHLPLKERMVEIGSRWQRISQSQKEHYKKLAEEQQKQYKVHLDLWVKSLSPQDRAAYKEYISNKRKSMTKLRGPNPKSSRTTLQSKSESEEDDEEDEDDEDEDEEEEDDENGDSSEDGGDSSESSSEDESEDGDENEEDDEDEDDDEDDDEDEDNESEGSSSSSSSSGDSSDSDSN
UniProt Q9BZL1: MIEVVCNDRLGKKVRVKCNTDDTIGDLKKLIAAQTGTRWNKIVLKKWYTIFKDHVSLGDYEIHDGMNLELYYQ
UniProt Q9H832: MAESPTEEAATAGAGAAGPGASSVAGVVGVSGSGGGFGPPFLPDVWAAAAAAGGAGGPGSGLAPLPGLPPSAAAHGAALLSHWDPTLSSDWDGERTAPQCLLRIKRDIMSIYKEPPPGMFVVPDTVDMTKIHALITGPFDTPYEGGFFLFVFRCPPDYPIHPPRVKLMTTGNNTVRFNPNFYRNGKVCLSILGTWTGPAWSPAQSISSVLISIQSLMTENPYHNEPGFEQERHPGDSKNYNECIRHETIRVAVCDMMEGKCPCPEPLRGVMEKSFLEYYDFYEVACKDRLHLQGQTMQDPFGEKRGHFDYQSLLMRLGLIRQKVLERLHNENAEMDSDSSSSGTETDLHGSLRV
UniProt P23258, whole entry, looked up: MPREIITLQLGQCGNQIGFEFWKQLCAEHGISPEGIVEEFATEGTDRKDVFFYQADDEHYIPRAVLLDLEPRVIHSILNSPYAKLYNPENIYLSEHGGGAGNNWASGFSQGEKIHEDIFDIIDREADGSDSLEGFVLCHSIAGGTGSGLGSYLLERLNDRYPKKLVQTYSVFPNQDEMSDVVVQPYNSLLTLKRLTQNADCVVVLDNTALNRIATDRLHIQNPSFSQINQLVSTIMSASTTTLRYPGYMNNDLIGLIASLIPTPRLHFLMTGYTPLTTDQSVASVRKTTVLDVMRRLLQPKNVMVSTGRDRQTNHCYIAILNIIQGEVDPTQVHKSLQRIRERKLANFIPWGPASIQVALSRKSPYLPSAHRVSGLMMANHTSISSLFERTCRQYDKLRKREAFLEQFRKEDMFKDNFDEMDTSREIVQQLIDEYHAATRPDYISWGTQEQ
UniProt Q6IBS0: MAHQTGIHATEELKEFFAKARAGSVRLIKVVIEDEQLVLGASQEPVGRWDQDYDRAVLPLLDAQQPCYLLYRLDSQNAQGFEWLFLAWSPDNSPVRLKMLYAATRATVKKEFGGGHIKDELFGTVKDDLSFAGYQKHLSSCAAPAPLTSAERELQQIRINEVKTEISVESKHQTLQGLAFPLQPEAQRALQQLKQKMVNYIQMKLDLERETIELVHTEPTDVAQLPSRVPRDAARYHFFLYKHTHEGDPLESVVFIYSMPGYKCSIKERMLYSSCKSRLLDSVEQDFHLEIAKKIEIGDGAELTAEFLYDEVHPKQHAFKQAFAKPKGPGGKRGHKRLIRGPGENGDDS
UniProt Q13885, whole entry, looked up: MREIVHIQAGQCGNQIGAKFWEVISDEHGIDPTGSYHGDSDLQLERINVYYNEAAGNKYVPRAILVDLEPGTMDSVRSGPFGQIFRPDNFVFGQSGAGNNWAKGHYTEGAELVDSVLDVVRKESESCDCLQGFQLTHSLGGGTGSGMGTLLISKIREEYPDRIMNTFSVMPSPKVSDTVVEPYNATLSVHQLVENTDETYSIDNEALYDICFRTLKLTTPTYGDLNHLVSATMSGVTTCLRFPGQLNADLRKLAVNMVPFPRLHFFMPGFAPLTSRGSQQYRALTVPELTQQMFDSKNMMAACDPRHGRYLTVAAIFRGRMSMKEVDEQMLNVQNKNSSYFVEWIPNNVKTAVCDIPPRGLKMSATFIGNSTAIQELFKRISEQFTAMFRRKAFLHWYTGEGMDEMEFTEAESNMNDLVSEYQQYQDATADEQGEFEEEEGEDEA
UniProt P07437, whole entry, looked up: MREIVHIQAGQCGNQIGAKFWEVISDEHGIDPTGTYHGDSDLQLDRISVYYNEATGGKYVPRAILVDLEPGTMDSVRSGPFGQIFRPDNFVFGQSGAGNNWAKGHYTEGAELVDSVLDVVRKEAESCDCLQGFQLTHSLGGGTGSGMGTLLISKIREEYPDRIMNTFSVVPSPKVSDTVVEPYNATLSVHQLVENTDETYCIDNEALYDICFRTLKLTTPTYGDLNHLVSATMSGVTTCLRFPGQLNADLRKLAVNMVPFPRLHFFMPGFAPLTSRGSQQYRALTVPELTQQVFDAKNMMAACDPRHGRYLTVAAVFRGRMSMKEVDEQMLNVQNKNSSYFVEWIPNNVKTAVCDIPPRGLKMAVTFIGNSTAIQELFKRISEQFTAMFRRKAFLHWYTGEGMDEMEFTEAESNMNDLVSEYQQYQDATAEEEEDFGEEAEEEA
UniProt Q8N806: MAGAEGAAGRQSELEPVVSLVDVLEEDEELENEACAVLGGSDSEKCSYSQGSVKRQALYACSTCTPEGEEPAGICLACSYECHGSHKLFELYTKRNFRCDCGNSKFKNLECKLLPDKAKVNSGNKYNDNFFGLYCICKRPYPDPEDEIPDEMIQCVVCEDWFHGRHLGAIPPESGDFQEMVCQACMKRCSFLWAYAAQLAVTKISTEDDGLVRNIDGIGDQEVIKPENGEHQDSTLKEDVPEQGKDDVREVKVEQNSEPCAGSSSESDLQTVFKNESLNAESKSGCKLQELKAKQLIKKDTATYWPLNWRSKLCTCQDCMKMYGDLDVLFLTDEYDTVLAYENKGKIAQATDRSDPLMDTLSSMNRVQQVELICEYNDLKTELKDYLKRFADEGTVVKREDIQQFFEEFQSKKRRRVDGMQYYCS

What was measured:
Assay in all cases: log2 fold change, soluble protein after heating vs DMSO (PISA); higher = thermal stabilisation; K562 lysate, 10 uM; active = over 0.2 and 3.5 SD of the protein, either way, in both replicates (recomputed)
[1] = compound: NCC(=O)Nc1ccc(-n2nc(C(F)(F)F)cc2-c2ccc3c(ccc4ccccc43)c2)cc1
Summary of the method: (§1)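 A 30 min treatment with 10 μM compound was applied to crude K562 extract at 1 mg/mL protein in PBS pH 7.4 with 1 mM MgCl2. Heating for 3 min spanned 48°C-58°C, after which aliquots were pooled, adjusted to 0.5% NP-40 at 4°C and spun at 21,000xg for 90 min. TMTpro 16plex LC-MS/MS of the supernatant, with channel sums equalised, gave values recorded as log-two fold change in thermal stability against solvent controls, from duplicates.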

vorinostat = compound: O=C(CCCCCCC(=O)Nc1ccccc1)NO [vorinostat]
Summary of the method: as §1

silmitasertib = compound: O=C(O)c1ccc2c(c1)nc(Nc1cccc(Cl)c1)c1ccncc12 [silmitasertib]
Summary of the method: as §1

[2] = compound: O=C1NC(=O)C(c2cnc3ccccn23)=C1c1cn2c3c(cc(F)cc13)CN(C(=O)N1CCCCC1)CC2
Summary of the method: as §1

entospletinib = compound: c1cn2cc(-c3ccc4cn[nH]c4c3)nc(Nc3ccc(N4CCOCC4)cc3)c2n1 [entospletinib]
Summary of the method: as §1

Target | log2 fold change [1] | log2 fold change (vorinostat) | log2 fold change (silmitasertib) | log2 fold change [2] | log2 fold change (entospletinib)
UAP1L1 (UniProt Q3KQV9) | inactive: -0.162 | inactive: -0.194 | inactive: 0.032 | inactive: -0.073 | inactive: -0.039
UBTF (UniProt P17480) | inactive: -0.045 | active: -0.315 | inactive: 0.044 | inactive: -0.012 | inactive: 0.032
UBL5 (UniProt Q9BZL1) | inactive: -0.027 | inactive: -0.078 | inactive: 0.065 | inactive: 0.077 | inactive: -0.049
UBE2Z (UniProt Q9H832) | inactive: 0.018 | inactive: 0.013 | inactive: -0.023 | inactive: -0.022 | inactive: 0.008
TUBG1 (UniProt P23258) | inactive: 0.009 | inactive: -0.202 | inactive: 0.042 | inactive: 0.052 | inactive: 0.027
TWF2 (UniProt Q6IBS0) | inactive: -0.024 | inactive: 0.044 | inactive: -0.017 | inactive: -0.006 | inactive: 0
TUBB2A (UniProt Q13885) | inactive: 0.034 | active: -0.759 | inactive: 0.016 | inactive: -0.004 | inactive: -0.012
TUBB (UniProt P07437) | inactive: 0.025 | active: -0.529 | inactive: 0.009 | inactive: 0.032 | inactive: -0.018
UBR7 (UniProt Q8N806) | inactive: 0.01 | inactive: 0.101 | inactive: -0.022 | inactive: -0.01 | inactive: 0.002
